Values from PubChem BioAssay AID686938 (Drosophila RNAi Screening Center, 2013).

Test: 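Knock-downs reducing store-operated calcium influx in Drosophila cells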 (primary screen)
System: Drosophila S2R+ cells
Reagents: long dsRNA against Drosophila genes, about 0.25 µg dsRNA per well, roughly 10,000 cells
Duration: 5 days of knock-down before the calcium assay
Conditions: thapsigargin (SERCA pump blocker) to empty calcium stores; entry signal taken 4 min after adding it
Detection: 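Per-well fluo-4 fluorescence in two replicates, unnormalised, measured in resting cells and 4 min after store depletion by the SERCA blocker thapsigargin; ratio of the two present in few wells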
Reading the numbers: calcium entry signal: higher = stronger calcium signal after store depletion; entry to resting ratio: higher = more calcium entry relative to resting level; resting calcium signal: higher = higher resting calcium signal
Call rule: 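Hit if the duplicate-averaged plate z-score for entry over resting signal is under −3; wells with weak total dye signal (Fmax z < −2) or more than 5 off-targets removed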
Meaning of the calls: active = strongly reduced calcium entry; inactive = no strong reduction
The deposit covers about 23,000 reagents; this is an unselected part of those that have a named target and a result. In the full data, 75 (0.33%) are marked active. 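Raw plate signals without normalisation; calls rest on plate z-scores that were not deposited; ratio present for only 364 wells.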 Names joined by + are all predicted targets of the reagent. Not stated in the record: the dose of the treatment.

| Target gene | amplicon | calcium entry signal, replicate 1 (fluorescence units) | calcium entry signal, replicate 2 (fluorescence units) | entry to resting ratio | resting calcium signal, replicate 1 (fluorescence units) | resting calcium signal, replicate 2 (fluorescence units) | call |
| --- | --- | --- | --- | --- | --- | --- | --- |
| CG7264 | DRSC10793 | 3.01e7 | 4.18e7 | – | 1.51e7 | 1.79e7 | inactive |
| CG12159 | DRSC06114 | 4.22e7 | 1.95e7 | – | 1.89e7 | 1.17e7 | inactive |
| sala + CG43355 | DRSC01188 | 4.07e7 | 3.84e7 | – | 1.98e7 | 1.95e7 | inactive |
| sala + CG43355 | DRSC03605 | 4.33e7 | 5.28e7 | – | 2.09e7 | 2.37e7 | inactive |
| luna | DRSC05253 | 3.05e7 | 4.41e7 | – | 1.46e7 | 1.92e7 | inactive |
| luna | DRSC06663 | 2.91e7 | 4.50e7 | – | 1.76e7 | 2.76e7 | inactive |
| luna | DRSC07336 | 3.94e7 | 4.68e7 | – | 1.89e7 | 2.27e7 | inactive |
| CG17267 | DRSC15207 | 4.20e7 | 4.96e7 | – | 6.77e7 | 2.21e7 | inactive |
| CG13563 | DRSC22153 | 3.43e7 | 6.49e7 | – | 1.66e7 | 2.88e7 | inactive |
| mthl7 | DRSC10852 | 3.12e7 | 3.53e7 | – | 1.42e7 | 1.61e7 | inactive |
| CG8152 | DRSC07083 | 3.65e7 | 4.55e7 | – | 1.93e7 | 2.00e7 | inactive |
| CG9395 | DRSC03218 | 2.51e7 | 1.76e7 | – | 1.16e7 | 8.82e6 | inactive |
| Ubr3 | DRSC17987 | 3.16e7 | 3.60e7 | – | 1.96e7 | 2.16e7 | inactive |
| Ubr3 | DRSC17997 | 2.83e7 | 3.16e7 | – | 1.87e7 | 1.91e7 | inactive |
| CG34041 | DRSC22276 | 3.40e7 | 6.36e7 | – | 1.67e7 | 2.96e7 | inactive |
| CG42399 | DRSC00322 | 3.43e7 | 3.80e7 | – | 2.05e7 | 1.77e7 | inactive |
| CG42399 | DRSC00661 | 4.36e7 | 4.16e7 | – | 2.03e7 | 1.80e7 | inactive |
| Cht11 | DRSC18270 | 2.92e7 | 3.80e7 | – | 1.55e7 | 1.71e7 | inactive |
| CG31806 | DRSC02787 | 4.10e7 | 2.66e7 | – | 1.89e7 | 1.32e7 | inactive |
| CG1722 | DRSC20547 | 3.52e7 | 4.07e7 | – | 2.09e7 | 1.75e7 | inactive |
| CG13022 | DRSC09902 | 3.20e7 | 5.91e7 | – | 1.65e7 | 2.51e7 | inactive |
| CG32248 | DRSC08102 | 5.05e7 | 4.01e7 | – | 2.68e7 | 1.79e7 | inactive |
| CG4238 | DRSC00090 | 4.14e7 | 3.54e7 | – | 2.14e7 | 1.63e7 | inactive |
| CG4238 | DRSC00644 | 4.12e7 | 4.80e7 | – | 1.83e7 | 1.96e7 | inactive |
| del | DRSC03170 | 3.49e7 | – | – | 1.81e7 | – | inactive |
| Atf-2 + veg (retired record) | DRSC04130 | 4.48e7 | – | – | 2.29e7 | – | inactive |
| Atf-2 + veg (retired record) | DRSC04413 | 2.05e7 | 2.27e7 | – | 9.48e6 | 1.20e7 | inactive |
| Galphas | DRSC04616 | 3.15e7 | – | – | 1.49e7 | – | inactive |
| CG11211 | DRSC04851 | 4.27e7 | 4.12e7 | – | 2.08e7 | 2.02e7 | inactive |
| achi | DRSC07276 | 3.16e7 | 3.60e7 | – | 1.64e7 | 1.78e7 | inactive |
| Lim1 | DRSC17752 | 3.19e7 | 3.37e7 | – | 1.36e7 | 1.48e7 | inactive |
| Lim1 | DRSC18677 | 3.37e7 | 3.90e7 | – | 1.54e7 | 2.08e7 | inactive |
| Karybeta3 | DRSC12355 | 2.75e7 | 3.44e7 | – | 1.41e7 | 2.38e7 | inactive |
| bgm | DRSC03495 | 2.41e7 | – | – | 1.57e7 | – | inactive |
| Mct1 | DRSC18681 | 3.86e7 | 6.68e7 | 1.9 | 2.04e7 | 2.50e7 | inactive |
| CG12912 | DRSC06227 | 1.98e7 | 4.12e7 | – | 1.28e7 | 1.87e7 | inactive |
| CG34452 | DRSC09387 | 2.92e7 | 2.87e7 | – | 1.50e7 | 1.35e7 | inactive |
| CG3149 | DRSC17732 | 2.98e7 | 3.45e7 | – | 1.50e7 | 1.57e7 | inactive |
| CG13071 | DRSC09954 | 3.23e7 | 5.15e7 | – | 1.83e7 | 2.03e7 | inactive |
| pan | DRSC17176 | 2.84e7 | 3.57e7 | – | 1.30e7 | 1.50e7 | inactive |
| pan | DRSC22582 | 3.45e7 | 3.31e7 | – | 1.88e7 | 1.47e7 | inactive |
| CG13458 | DRSC10005 | 3.73e7 | 4.27e7 | – | 1.69e7 | 2.77e7 | inactive |
| kek5 | DRSC19438 | 4.76e7 | 6.61e7 | – | 2.32e7 | 2.60e7 | inactive |
| CG11911 | DRSC00331 | 3.91e7 | – | – | 2.16e7 | – | inactive |
| CG8541 | DRSC10989 | 2.88e7 | 4.49e7 | – | 1.46e7 | 1.93e7 | inactive |
| CG17237 | DRSC00491 | 4.31e7 | 4.84e7 | – | 1.92e7 | 2.08e7 | inactive |
| AOX4 | DRSC15337 | 2.39e7 | 5.15e7 | – | 1.25e7 | 5.40e7 | inactive |
| RhoBTB | DRSC11877 | 4.17e7 | 4.91e7 | – | 1.87e7 | 3.21e7 | inactive |
| obst-B | DRSC01987 | 4.48e7 | – | – | 2.17e7 | – | inactive |
| CG33477 | DRSC22934 | 5.66e7 | 3.94e7 | – | 2.48e7 | 1.57e7 | inactive |
| dind | DRSC16294 | 3.19e7 | 2.50e7 | – | 1.50e7 | 1.15e7 | inactive |
| CG15473 | DRSC18056 | 3.89e7 | 4.83e7 | – | 1.78e7 | 2.14e7 | inactive |
| CG33098 | DRSC22903 | 4.39e7 | 3.89e7 | – | 2.35e7 | 1.84e7 | inactive |
| CG15728 | DRSC19694 | 2.80e7 | 4.05e7 | – | 1.44e7 | 1.84e7 | inactive |
| CG15728 | DRSC22868 | 1.85e7 | 3.47e7 | – | 1.06e7 | 1.49e7 | inactive |
| CG12128 + CG1407 | DRSC06446 | 4.33e7 | 3.33e7 | – | 1.83e7 | 1.64e7 | inactive |
| Zcchc7 | DRSC11099 | 2.49e7 | 3.21e7 | – | 1.39e7 | 2.42e7 | inactive |
| ppk21 | DRSC14466 | 3.28e7 | 5.29e7 | – | 1.73e7 | 2.09e7 | inactive |
